{
  "sequences": {"note": "Amino acid sequences for entries named in this document (tags omitted). A change or cut given only in a name is not applied to a line headed by its entry.", "UniProt P19793": "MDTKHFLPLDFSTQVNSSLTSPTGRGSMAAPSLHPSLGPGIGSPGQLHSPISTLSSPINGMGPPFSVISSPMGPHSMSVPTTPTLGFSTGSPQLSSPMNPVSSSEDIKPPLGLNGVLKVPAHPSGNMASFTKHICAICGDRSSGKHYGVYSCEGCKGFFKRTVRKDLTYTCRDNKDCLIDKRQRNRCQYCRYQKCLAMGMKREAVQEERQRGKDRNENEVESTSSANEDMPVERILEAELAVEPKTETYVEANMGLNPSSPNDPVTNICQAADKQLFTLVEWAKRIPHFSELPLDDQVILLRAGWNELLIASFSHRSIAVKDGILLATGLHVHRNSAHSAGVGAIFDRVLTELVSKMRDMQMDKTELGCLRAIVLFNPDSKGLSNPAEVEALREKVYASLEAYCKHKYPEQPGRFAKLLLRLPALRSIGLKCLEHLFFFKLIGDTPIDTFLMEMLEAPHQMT"},
  "source": "PubChem BioAssay (Tox21)",
  "note": "This list was built around the results that the source calls inconclusive (neither active nor inactive); the mix of calls is not that of the screen. Potencies beside an inconclusive call are fits to weak or partial responses and may not hold up. The source holds several records for some structures; these can differ, active in one and inactive in another. Active and inactive are the calls of the source. Unless noted, calls come from the whole dose curve; as a rule, active = well fitted cell-killing curve with a large enough effect in the repeat runs; inconclusive = weak or mixed curves, or effect the other way; inactive = no such curve, though single readings can be large or run the other way. % is set by controls: 0 for no effect and ±100 for the full control effect; potency is the fitted concentration of half-maximal effect.",
  "data": [
    {"target": "Retinoic acid receptor RXR-alpha (Homo sapiens) (UniProt P19793)", "experiment": "qHTS assay to identify small molecule agonists of the RXR signaling pathway (AID 1159527; calls by dose curve; note: nearly all actives have a fitted effect of over 35% in size)", "conditions": "HEK293T RXRa-UAS-bla, beta-lactamase ratio, 16 h; activation: at 76.8 µM (top of the series) unless noted", "method_in_brief": "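Cells plated at 2,000/well, rested 5 hr at 37 C, pin-dosed with DMSO compound solutions, incubated 16 hr, then loaded with B/G FRET substrate for 2 hr at RT before dual-emission fluorescence reading.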", "values": [
      {"smiles": "Cc1occc1C(=O)Nc1ccc(C(=O)N2CCC(F)(F)/C(=C\\C(=O)N3CCC(N4CCCCC4)CC3)c3ccccc32)cc1", "Potency": "inconclusive: 19.3 µM [rising, partial curve, poor fit]"},
      {"smiles": "CC1=CC(=O)NS(=O)(=O)O1", "activation": "inconclusive: -14.9%"},
      {"smiles": "CCC(=O)OC(C)(C)C1CC=C(C)CC1", "note": "(stereo unspecified)", "activation": "inconclusive: 4.75%"},
      {"smiles": "C=CC(=O)OCCOc1ccccc1", "Potency": "inconclusive: 7.76 µM [inhibitor]"},
      {"smiles": "CC1(C)S[C@@H]2[C@H](NC(=O)C(C(=O)O)c3ccccc3)C(=O)N2[C@H]1C(=O)O", "note": "(stereo partly specified)", "Potency": "inactive"},
      {"smiles": "OCCSc1ccccc1", "Potency": "inconclusive: 49 µM [activator]"},
      {"smiles": "COc1ccc(OC)c(N=Nc2c(O)ccc3ccccc23)c1", "Potency": "inconclusive: 4.9 µM [inhibitor]"},
      {"smiles": "O=C1CCCCCCCCCCCC(=O)OCCO1", "activation": "inconclusive: -33.2%"},
      {"smiles": "CCCCCCCCCCCC(=O)Cl", "Potency": "inconclusive: 54.9 µM [activator]"},
      {"smiles": "CCN(CC)c1ccc(N=Nc2ccccc2)cc1", "Potency": "inconclusive: 19.5 µM [inhibitor, partial curve]"},
      {"smiles": "COc1ccc(C(=O)c2cccc(O)c2)c(OC)c1", "activation": "inconclusive: 15.8%"},
      {"smiles": "O=C1NCCN1", "Potency": "inconclusive: 29.6 µM [rising, partial curve, poor fit]"},
      {"smiles": "N#CCc1cccc(C(F)(F)F)c1", "Potency": "inconclusive: 54.9 µM [inhibitor, single point]"},
      {"smiles": "Cc1cc(CC(=O)O)c(C)n1-c1ccc(Cl)cc1", "activation": "inconclusive: -23.4% [at 35.3 µM]"},
      {"smiles": "Cc1oc2c(NC(=O)c3c(Cl)cccc3Cl)cccc2c1C(C)(C)O", "Potency": "inconclusive: 21.9 µM"},
      {"smiles": "Cc1ccc(C)o1", "Potency": "inconclusive: 0.0031 µM [rising, full curve, poor fit]"},
      {"smiles": "CN(C)CCC(c1ccc(Cl)cc1)c1ccccn1", "note": "(stereo unspecified)", "Potency": "inconclusive: 55.1 µM [rising, single point]"},
      {"smiles": "CC1=C(C)C(=O)C(CCCCC#CCCCC#CCO)=C(C)C1=O", "Potency": "inconclusive: 7.56 µM [inhibitor]"},
      {"smiles": "COC=O", "Potency": "inconclusive: 1.27 µM [activator, full curve]"},
      {"smiles": "CCN(CC)CCOC(=O)C(c1ccccc1)C1CCCCC1", "note": "(stereo unspecified)", "activation": "inconclusive: -23.9% [at 35.3 µM]"},
      {"smiles": "CC1=CC[C@H](C(C)C)C=C1", "Potency": "inactive"},
      {"smiles": "CCN(CC)CCOC(=O)C1(c2ccccc2)CCCC1", "Potency": "inactive"},
      {"smiles": "CN(C)CCCNCCCN", "Potency": "inconclusive: 48.8 µM [rising, partial curve, poor fit]"},
      {"smiles": "NC(=O)Cn1c(=O)cc(CCN2CCN(c3nccc4sccc34)CC2)c2ccc(F)cc21", "Potency": "inconclusive: 30.9 µM [fluorescent, partial curve]"},
      {"smiles": "O=P(c1ccccc1)(c1ccccc1)c1ccccc1", "Potency": "inconclusive: 49 µM [rising, partial curve, poor fit]"},
      {"smiles": "OC[C@H]1O[C@@](CO)(O[C@H]2O[C@H](CO)[C@@H](O)[C@H](O)[C@H]2O)[C@@H](O)[C@@H]1O", "activation": "inconclusive: -11.3%"},
      {"smiles": "CCOC(=O)CC(=O)C(=O)OCC", "Potency": "inconclusive: 4.36 µM [rising, full curve, poor fit]"}
    ]},
    {"test_system": "not listed separately", "experiment": "qHTS assay to identify small molecule agonists of the RXR signaling pathway - cell viability counter screen (AID 1159529); note: nearly all actives have a fitted effect of over 50% in size", "conditions": "RXR-alpha-bla HEK293T viability, CellTiter-Glo, 16 h; series mostly up to 76.8 µM", "method_in_brief": "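Steps: seed RXR-alpha-UAS-bla HEK 293T cells in assay medium containing 2% charcoal-stripped FBS; incubate 5 hr; add compounds in DMSO; incubate 16 hr at 37 C; after the bla read, add CellTiter-Glo and read luminescence at 30 min.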", "values": [
      {"smiles": "CN1[C@@H]2CC[C@H]1CC(OC(=O)C(CO)c1ccccc1)C2", "note": "(stereo partly specified)", "Potency": "inconclusive: 19.6 µM [cytotoxic, partial curve, poor fit]"},
      {"smiles": "COc1cc(/C=C/C(N)=O)cc(OC)c1OC", "Potency": "inactive"},
      {"smiles": "C=C(C)C(=O)O[C@H]1C[C@@H]2CC[C@@]1(C)C2(C)C", "Potency": "active: 15.4 µM"},
      {"smiles": "CCCCCCCCCCCCCCOS(=O)(=O)O", "Potency": "active: 21.9 µM"},
      {"smiles": "CC(C)O.CC(C)O.CCOC(=O)/C=C(\\C)O.CCOC(=O)/C=C(\\C)O.[Ti]", "Potency": "inactive"},
      {"smiles": "C=CC(O)CCCCC", "note": "(stereo unspecified)", "Potency": "inactive"},
      {"smiles": "CCCOc1ccccc1-c1nc2n[nH]nc2c(=O)[nH]1", "Potency": "inactive"},
      {"smiles": "O=[N+]([O-])c1ccc(O)cc1C(F)(F)F", "Potency": "inconclusive: 8.71 µM [cytotoxic, single point]"},
      {"smiles": "CCCCCCCCSCc1cc(C)c(O)c(CSCCCCCCCC)c1", "Potency": "inconclusive: 49 µM [cytotoxic]"},
      {"smiles": "Oc1ccc(C2(c3ccc(O)c(C4CCCCC4)c3)CCCCC2)cc1C1CCCCC1", "Potency": "active: 19.5 µM"},
      {"smiles": "CCCCCCCCCCCCCC(=O)O", "Potency": "inconclusive: 30.9 µM [cytotoxic, partial curve]"},
      {"smiles": "CSc1ccc(O)cc1C", "Potency": "inconclusive: 61.6 µM [cytotoxic, single point]"},
      {"smiles": "Cc1occc1C(=O)Nc1ccc(C(=O)N2CCC(F)(F)/C(=C\\C(=O)N3CCC(N4CCCCC4)CC3)c3ccccc32)cc1", "Potency": "inconclusive: 10.8 µM [cytotoxic, partial curve]"},
      {"smiles": "CC1=CC(=O)NS(=O)(=O)O1", "Potency": "inconclusive: 19.5 µM [cytotoxic, full curve]"},
      {"smiles": "CCC(=O)OC(C)(C)C1CC=C(C)CC1", "note": "(stereo unspecified)", "Potency": "inconclusive: 49 µM [cytotoxic, single point]"},
      {"smiles": "C=CC(=O)OCCOc1ccccc1", "Potency": "inactive"},
      {"smiles": "CC1(C)S[C@@H]2[C@H](NC(=O)C(C(=O)O)c3ccccc3)C(=O)N2[C@H]1C(=O)O", "note": "(stereo partly specified)", "Potency": "inactive"},
      {"smiles": "OCCSc1ccccc1", "Potency": "inconclusive: 49 µM [cytotoxic, single point]"},
      {"smiles": "COc1ccc(OC)c(N=Nc2c(O)ccc3ccccc23)c1", "Potency": "inconclusive: 21.9 µM [cytotoxic, single point]"},
      {"smiles": "O=C1CCCCCCCCCCCC(=O)OCCO1", "Potency": "inconclusive: 34.7 µM [cytotoxic, partial curve, poor fit]"},
      {"smiles": "CCCCCCCCCCCC(=O)Cl", "Potency": "inconclusive: 24.5 µM [cytotoxic, partial curve]"},
      {"smiles": "CCN(CC)c1ccc(N=Nc2ccccc2)cc1", "Potency": "active: 19.5 µM"},
      {"smiles": "COc1ccc(C(=O)c2cccc(O)c2)c(OC)c1", "Potency": "inactive"},
      {"smiles": "O=C1NCCN1", "Potency": "inactive"},
      {"smiles": "N#CCc1cccc(C(F)(F)F)c1", "Potency": "inconclusive: 54.9 µM [cytotoxic, single point]"},
      {"smiles": "Cc1cc(CC(=O)O)c(C)n1-c1ccc(Cl)cc1", "Potency": "inconclusive: 21.3 µM [cytotoxic, partial curve, poor fit]"},
      {"smiles": "Cc1oc2c(NC(=O)c3c(Cl)cccc3Cl)cccc2c1C(C)(C)O", "Potency": "inconclusive: 24.5 µM [cytotoxic]"},
      {"smiles": "Cc1ccc(C)o1", "Potency": "inactive"},
      {"smiles": "CN(C)CCC(c1ccc(Cl)cc1)c1ccccn1", "note": "(stereo unspecified)", "Potency": "inconclusive: 24.5 µM [cytotoxic, partial curve]"},
      {"smiles": "CC1=C(C)C(=O)C(CCCCC#CCCCC#CCO)=C(C)C1=O", "Potency": "inconclusive: 26.8 µM [cytotoxic, single point]"},
      {"smiles": "COC=O", "Potency": "inconclusive: 1.01 µM [rising, full curve, poor fit]"},
      {"smiles": "CCN(CC)CCOC(=O)C(c1ccccc1)C1CCCCC1", "note": "(stereo unspecified)", "Potency": "inconclusive: 21.3 µM [cytotoxic, partial curve]"},
      {"smiles": "CC1=CC[C@H](C(C)C)C=C1", "Potency": "inconclusive: 21.9 µM [cytotoxic, partial curve]"},
      {"smiles": "CCN(CC)CCOC(=O)C1(c2ccccc2)CCCC1", "Potency": "inconclusive: 12 µM [cytotoxic, partial curve, poor fit]"},
      {"smiles": "CN(C)CCCNCCCN", "Potency": "active: 48.8 µM"},
      {"smiles": "NC(=O)Cn1c(=O)cc(CCN2CCN(c3nccc4sccc34)CC2)c2ccc(F)cc21", "Potency": "inconclusive: 5.49 µM [cytotoxic, single point]"},
      {"smiles": "O=P(c1ccccc1)(c1ccccc1)c1ccccc1", "Potency": "inactive"},
      {"smiles": "OC[C@H]1O[C@@](CO)(O[C@H]2O[C@H](CO)[C@@H](O)[C@H](O)[C@H]2O)[C@@H](O)[C@@H]1O", "Potency": "inconclusive: 17.4 µM [rising, partial curve]"},
      {"smiles": "CCOC(=O)CC(=O)C(=O)OCC", "Potency": "inconclusive: 3.89 µM [cytotoxic, full curve, poor fit]"}
    ]}
  ]
}
